# Test results: PubChem BioAssay AID1347075 (National Center for Advancing Translational Sciences (NCATS), 2019)
# Out of some 400,000 compounds screened, about 5,500 (1.4%) were called active. The shares of active, inactive and inconclusive entries below differ from those in the screen. Calls come from the whole dose curve; as a rule, active = well fitted cell-killing curve with a large enough effect; inconclusive = small, poorly fitted or top-dose-only effect, or effect the other way; inactive = flat fitted curve, though single readings scatter. Where the call is inconclusive, the potency comes from a doubtful curve fit.
# Test: qHTS assay for MDR1-selective chemotherapeutics: Primary screen using the parental adenocarcinoma cell KB-3-1; note: nearly all actives have a fitted effect of over 60% in size
# Conditions: KB-3-1 viability, CellTiter-Glo ATP luminescence, 72 h; activity change, negative = cytotoxic: at 46.1 µM (top of the series)
# Method in brief: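 Multi-concentration cytotoxicity screen in KB-3-1 cells grown in DMEM lacking phenol red with 10% FBS. After 72 h at 37 °C with compound, ATP-dependent luminescence was recorded.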
# % is set by controls: 0 for no effect and ±100 for the full control effect; potency is the fitted concentration of half-maximal effect.
SMILES,Potency,"activity change, negative = cytotoxic"
CCOC(=O)C(=O)N1c2ccccc2C(N(C(=O)C(=O)OCC)c2ccccc2)CC1C (stereo not given),"inconclusive: 20.6 µM [rising, single point]",–
Cc1ccc(-c2nn(Cc3ccccc3)cc2/C=C/C(=O)O)cc1,–,inactive: 4.29%
Cc1ccc(Cl)cc1N1CCN(CCCNC(=O)C2COc3ccccc3C2)CC1 (stereo not given),active: 20.6 µM,–
COc1ccc(-c2coc3c(C(=O)Nc4cccc(NS(C)(=O)=O)c4)cccc23)c(C)c1,"inconclusive: 29.1 µM [cytotoxic, single point]",–
CC(=O)Nc1nc(C)c(CCC2OCCO2)c(=O)[nH]1,"inconclusive: 0.326 µM [rising, full curve]",–
CCOC(=O)c1ccc(NC(=O)Cn2c(=O)cc(C(F)(F)F)c3c(C)nn(C)c32)cc1,–,inactive: 4.81%
O=C(O)c1ccc(COc2ccccc2C=C2C(=O)c3ccccc3C2=O)cc1,"inconclusive: 4.61 µM [rising, full curve]",–
COc1cc(CN2CCc3nc(N4CCN(c5ccccn5)CC4)ncc3C2)cc(OC)c1OC,"inconclusive: 3.26 µM [cytotoxic, partial curve, poor fit]",–
CCOc1ccc(N(CC(=O)Nc2ccccc2OC)S(C)(=O)=O)cc1,"inconclusive: 29.1 µM [cytotoxic, single point]",–
COc1ccc(-c2cnc3c(NC=O)cc(-c4ccc(S(C)(=O)=O)cc4)cn23)cc1OC,"inconclusive: 25.9 µM [cytotoxic, single point]",–
COc1cc2c[n+](C)c3c4ccccc4ccc3c2cc1OC,active: 9.2 µM,–
CSc1cc(-c2ccc(Cl)cc2)c(C(=O)NN)s1,"inconclusive: 29.1 µM [cytotoxic, single point]",–
O=C1CC(c2ccccc2)CC2=C1C=Nc1ccccc1N2 (stereo not given),"inconclusive: 18.4 µM [cytotoxic, single point]",–
Cc1cc(C)cc(Nc2c(F)c(F)c(F)c(F)c2C(=O)O)c1,"inconclusive: 29.1 µM [cytotoxic, partial curve, poor fit]",–
CC(=O)N1CCC(=NNC(=O)CSc2cc(C)c(Br)cc2C)CC1,"inconclusive: 0.0291 µM [rising, full curve]",–
CC1CCCCN1CCCNC(=O)c1ccc2nc(N3CCCCC3)sc2c1 (stereo not given),–,inactive: -19.7%
O=C(Cc1ccc(F)cc1)NCCS(=O)(=O)N1CCN(c2ccccc2)CC1,–,inconclusive: -0.949%
OC(C[n+]1cccc(Br)c1)c1ccccc1 (stereo not given),"inconclusive: 0.0018 µM [cytotoxic, full curve, poor fit]",–
COc1ccc(S(=O)(=O)N2CCCC(C(=O)NCCC3=CCCCC3)C2)cc1 (stereo not given),"inconclusive: 29.1 µM [cytotoxic, single point]",–
CCN1C(=O)C(CC(=O)Nc2ccc(OC)cc2)N(CCc2ccc(OC)cc2)C1=S (stereo not given),"inconclusive: 29.1 µM [cytotoxic, single point]",–
Cn1c(N)c(C(=O)CSc2n[nH]c(-c3ccccc3)n2)c(=O)n(C)c1=O,"inconclusive: 4.11 µM [rising, full curve]",–
O=C(COC(=O)c1ccc(OC(F)F)cc1)NCCC1=CCCCC1,"inconclusive: 25.9 µM [rising, single point]",–

SMILES,Potency,"activity change, negative = cytotoxic"
Cc1ccc(S(=O)(=O)N2CCC(=O)N([C@H](COCc3ccccc3)Cc3ccccc3)CC2)cc1,"inconclusive: 23.1 µM [cytotoxic, single point]",–
CC(SC#N)C(=O)C12CC3CC(CC(C3)C1)C2 (stereo not given),active: 20.6 µM,–
COc1ccccc1C(=O)COC(=O)c1ccc(-n2cnnn2)cc1,"inconclusive: 8.2 µM [rising, partial curve, poor fit]",–
CCN(CC(=O)NC(=O)NCc1ccccc1)CC(=O)Nc1cc(Cl)ccc1C,"inconclusive: 29.1 µM [cytotoxic, single point]",–
COc1ccc(/C=N/Nc2cc(C)nc3c(C)cccc23)cc1,"inconclusive: 29.1 µM [cytotoxic, single point]",–
O=C(Nc1c(-c2ccccc2)[nH][nH]c1=O)c1cccc(C(F)(F)F)c1,–,inactive: 0.0564%
COc1cccc(NS(=O)(=O)c2ccc3[nH]cc(C(=O)NCCC(C)C)c(=O)c3c2)c1,"inconclusive: 25.9 µM [cytotoxic, partial curve, poor fit]",–
C#CCOCCOCCOCCNc1nc(N2CCN(C(=O)CCCCCCCCCCNC(=O)Cn3cc(C[C@@H](C)O)nn3)CC2)nc(N2CCN(C(=O)CCCCCCCCCCNC(=O)[C@H](CCCCN)n3cc(C[C@@H](C)CC)nn3)CC2)n1,"inconclusive: 32.6 µM [cytotoxic, single point]",–
Cc1ccccc1N=Cc1c(O)n(-c2nccs2)c(=O)c2ccccc12,–,inactive: 14.4%
Cc1ccc(Cc2nnc3n(-c4cccc(C)c4)nc(C(=O)c4ccccc4)n3c2=O)cc1,"inconclusive: 20 µM [cytotoxic, single point]",–
Cc1cc(C)c(-c2csc(NC(=O)c3n[nH]c(=O)c4ccccc34)n2)c(C)c1,"inconclusive: 5.8 µM [cytotoxic, full curve]",–
Fc1ccc(-n2ncc3c(NCCC4=CCCCC4)ncnc32)cc1,–,inactive: 0.0181%
COc1ccc(C(=O)Nc2cc(S(=O)(=O)c3ccc(Cl)cc3)c(O)c(C)c2C)cc1,–,inactive: 5.39%
COc1ccccc1-c1nc(-c2ccccn2)no1,"inconclusive: 20.6 µM [cytotoxic, single point]",–
Cc1nn(C)c(C)c1N1C(=O)c2cccc3c(Br)ccc(c23)C1=O,"inconclusive: 29.1 µM [cytotoxic, partial curve, poor fit]",–
CC(C)CCn1nnnc1C(c1ccc(N(C)C)cc1)N1CCN(C(=O)c2ccco2)CC1 (stereo not given),–,inactive: -2.62%
CN(C(=O)c1ccc(NC(=O)Cc2cccc([N+](=O)[O-])c2)cc1)C1CCCC1,"inconclusive: 29.1 µM [cytotoxic, partial curve, poor fit]",–
CCCCn1c(=O)[nH]c(=O)c2c1nc(-c1cccc(OC)c1)n2C,–,inconclusive: -10.9%
CCOC(=O)Cn1c(=O)oc2cc(S(=O)(=O)NCCc3ccc(C)cc3)ccc21,–,inactive: 8.54%
CC(C)(C)c1ccc(C(=O)NCC(c2cccs2)S(=O)(=O)c2cccs2)cc1 (stereo not given),–,inactive: -13.5%
Cc1ccc(N(Cc2ccccc2)C(=O)c2cccc(S(=O)(=O)N3CC(C)OC(C)C3)c2)cc1 (stereo not given),"inconclusive: 8.2 µM [cytotoxic, partial curve, poor fit]",–
CN1CCN(c2ccc(-c3cccc(NC(=O)COc4ccccc4)c3)nn2)CC1,"inconclusive: 29.1 µM [rising, single point]",–

SMILES,Potency,"activity change, negative = cytotoxic"
O=C(CN1C2=NCCCN2c2ccccc21)c1ccc([N+](=O)[O-])cc1,"inconclusive: 29.1 µM [cytotoxic, single point]",–
CCN(CC(=O)NCc1cccs1)c1nnnn1-c1ccccc1,"inconclusive: 29.1 µM [cytotoxic, single point]",–
Clc1ccc(-c2noc(CSc3nnc(Cc4cccs4)n3-c3ccccc3)n2)cc1,"inconclusive: 29.1 µM [cytotoxic, single point]",–
COc1cc(C(=O)N(C)CC2CCN(CCc3cccc(C(F)(F)F)c3)CC2)ccc1C,"inconclusive: 23.1 µM [cytotoxic, single point]",–
COc1ccc(-c2ccc([C@H]3[C@@H]4C=CCC[C@@]4(C)C(=O)N3Cc3ccccc3)c(F)c2)cc1OC,"inconclusive: 29.1 µM [cytotoxic, single point]",–
Cc1cc2c(NCc3ccccc3)ncnc2s1,"inconclusive: 32.6 µM [cytotoxic, single point]",–
CC1(C)CC(=O)C2=C(C1)Oc1nc3ccccc3cc1C2C(C#N)C#N (stereo not given),active: 20.6 µM,–
Cc1ccc(C(=O)N/N=C/c2cc(Br)ccc2O)cn1,"inconclusive: 18.4 µM [cytotoxic, single point]",–
CN(NC(=O)c1ccc(Cl)cc1)c1nc(-c2ccccc2)nnc1C(F)(F)F,"inconclusive: 20.6 µM [cytotoxic, single point]",–
Cc1ccc(OCC(=O)Nc2ccc3nc(SCCOc4ccccc4)sc3c2)cc1,–,inactive: 13.4%
C=CC(=O)N1c2ccccc2Sc2ccc(NC(=O)OCC)cc21,"inconclusive: 29.1 µM [cytotoxic, single point]",–
Cc1cc(N2CCc3ccccc32)n2ncnc2n1,"inconclusive: 23.1 µM [cytotoxic, single point]",–
O=[N+]([O-])c1ccc(C(=S)N2CCN(c3ccc(F)cc3)CC2)cc1,–,inactive: 2.76%
CNc1ncnc2c1ncn2[C@H]1CN(Cc2ccc(-c3ccccc3)cc2)C[C@@H](CO)O1,–,inactive: -0.208%
O=C(Nc1cccc2ccccc12)OC1C=CS(=O)(=O)C1 (stereo not given),"inconclusive: 18.4 µM [cytotoxic, partial curve, poor fit]",–
O=C(/C=C/c1cn(-c2ccccc2)nc1-c1ccc2c(c1)OCCO2)NCCCN1CCOCC1,"inconclusive: 29.1 µM [cytotoxic, single point]",–
Cc1sc(NC(=O)c2ccco2)c(C(c2cccnc2)N2CCN(CCO)CC2)c1C (stereo not given),–,inactive: 9.61%
C[C@@]12C(=O)N(Cc3ccc(F)cc3)CC(=O)N1[C@H]1c3cc(Cl)ccc3OC[C@@H]1[C@@H]2c1ccccc1,"inconclusive: 29.1 µM [cytotoxic, single point]",–
COc1ccc(C=CC(=O)C=CC=Cc2ccccc2)cc1,"inconclusive: 2.91 µM [cytotoxic, full curve, poor fit]",–
Cc1cc(C)c2c(=O)cc(C(=O)NCc3ccc(S(N)(=O)=O)cc3)oc2c1,–,inactive: 2.31%
CCOC(=O)c1sc2nc(SCC(=O)N(CC)CC)n(CCCN3CCCC3=O)c(=O)c2c1C,–,inconclusive: -7.13%

# Quoted at random: five entries already listed
SMILES,Potency,"activity change, negative = cytotoxic"
O=C(Nc1cccc2ccccc12)OC1C=CS(=O)(=O)C1 (stereo not given),"inconclusive: 18.4 µM [cytotoxic, partial curve, poor fit]",–
CN(NC(=O)c1ccc(Cl)cc1)c1nc(-c2ccccc2)nnc1C(F)(F)F,"inconclusive: 20.6 µM [cytotoxic, single point]",–
Clc1ccc(-c2noc(CSc3nnc(Cc4cccs4)n3-c3ccccc3)n2)cc1,"inconclusive: 29.1 µM [cytotoxic, single point]",–
Cc1sc(NC(=O)c2ccco2)c(C(c2cccnc2)N2CCN(CCO)CC2)c1C (stereo not given),–,inactive: 9.61%
Cc1ccc(OCC(=O)Nc2ccc3nc(SCCOc4ccccc4)sc3c2)cc1,–,inactive: 13.4%
